Experimental data as given in patent US20250057883A1, “CONTROLLABLE STIMULATION OF GENETICALLY ENGINEERED LYMPHOCYTES FOR THE TREATMENT OF CANCER” (THE TRUSTEES OF THE UNIVERSITY OF PENNSYLVANIA, priority 2021, published 2025).
Entries after “also recorded” stand apart in the source; their conditions may differ. For at least one compound, name, drawing or mass did not settle the structure.

Tests used:
Assay type in all cases: cell-based, human
[1] = test system: T cells expressing the truncated NGFR; experiment: Stimulation of negative control T cells (truncated NGFR) for 7 days, flow cytometry; details: 0.1 μg/ml, FIG. 3 top
Procedure: (§1) FIG. 3: T cells transduced to express (i) the thrombopoietin receptor (TPOR) or (ii) the GCF receptor with a deletion at aa 715 (GCSFRd715) are active and can drive T cell proliferation via the non-canonical JAK2 pathway. T cells expressing GCSFRd715, TPOR, or the truncated NGFR as a control were stimulated for 7 days with IL-2/IL-7/IL-15 (all at 5 ng/ml; denoted as CK; positive control condition), 0.1 μg/ml recombinant thrombopoietin (TPO), 0.1 μg/ml TPO agonist eltrombopag (EP), or 0.1 μg/ml GCSF. Cell number (top) or percent transgenic cells (bottom) were quantified using flow cytometry at 7 days.
Healthy donor T cells were transduced to express (i) the thrombopoietin receptor (TPOR) or (ii) the GCF receptor with a deletion at aa 715 (GCSFRd715). T cells expressing GCSFRd715, TPOR, or the truncated NGFR as a control were stimulated for 7 days with IL-2/IL-7/IL-15 (all at 5 ng/ml; denoted as CK; positive control condition), 0.1 μg/ml recombinant thrombopoietin (TPO), 0.1 μg/ml TPO agonist eltrombopag (EP), or 0.1 μg/ml GCSF. Cell number (FIG. 3, top) or percent transgenic cells (FIG. 3, bottom) were quantified using flow cytometry at 7 days.

[2] = test system: T cells expressing TPOR; experiment: Stimulation of T cells expressing TPOR for 7 days, flow cytometry
Procedure: as §1
FIG. 4: Exemplary flow cytometry plots showing that exposure of transgenic cytokine receptor transduced cells to the cognate cytokine (i.e. GCSFRd715 to GCSF; TPOR to TPO or EP) leads to enrichment of CAR expressing cells at 7 days. Addition of GCSF enriched the GCSRFd715 transgenic cell fraction from 15.6% to 64.9% (top panel). Addition of TPO enriched the TPOR fraction from 12.9% to 82% and addition of EP enriched the TPOR fraction from 12.9% to 55.9% (bottom panel).
Healthy donor T cells were transduced to express (i) the thrombopoietin receptor (TPOR) or (ii) the GCF receptor with a deletion at aa 715 (GCSFRd715). […] Cell number (FIG. 3, top) or percent transgenic cells (FIG. 3, bottom) were quantified using flow cytometry at 7 days.

[3] = test system: T cells transduced with reporter+TPO-R; experiment: Expansion of TPO-R transduced T cells in vitro; details: transduced using the MV pseudotyped lentivector; FIG. 2D
From the text: FIGS. 2A-2D: Transgenic TPO-R enables controllable T cell expansion. T cells were transduced with the reporter NGFR, or with reporter+the thrombopoietin receptor (TPOR) and stimulated with eltrombopag, a specific small molecule agonist of TPOR, in vitro. FIG. 2A: Cell number is shown to increase only in the presence of the TPOR agonist. […] FIG. 2C: All cells that express the reporter (tNGFR) also express the TPO receptor.
Recombinant erythropoietin (Epo) and G-CSF are commercially approved for the treatment for anemia of chronic kidney disease, and for chemotherapy-related neutropenia, respectively. Clinical development of a recombinant thrombopoietin (TPO) was superseded by two TPO receptor (TPO-R, also known as c-Mpl) peptidomimetic drugs that are now approved for the treatment of immune thrombocytopenic purpura (romiplostim, and eltrombopag). […] Results of the TPO-R experiments were recapitulated herein (FIGS. 2A-2D). T cells were transduced with the reporter NGFR, or with reporter+TPO-R and stimulated with eltrombopag, a specific small molecule agonist of TPOR, in vitro. […] In FIG. 2C, it is shown that there is a 1:1 expression of the reporter NGFR with the TPO receptor after 12 days of eltrombopag treatment.

[4] = test system: STAT3 and STAT5; experiment: Phosphorylation of STAT3 and STAT5 in TPOR expressing T cells, flow cytometry; details: 0.1 μg/ml, 24 hours
Procedure: (§2) FIG. 5: TPOR stimulation leads to activation of STAT3 and STAT5. Healthy donor Tcells expressing TPOR or untransduced control T cells were stimulated for 24 hours with 5 ng/ml IL-2/IL-7/IL-15 (CK), 0.1 μg/ml TPO or 0.1 μg/ml Eltrombopag (EP). Following stimulation cells were fixed and the phosphorylation of STAT3 and STAT5 quantified using flow cytometry.
as §2, with “TPOR” for “FIG. 5: TPOR”, “stimulation led” for “stimulation leads”, “and STAT5 (FIG. 5).” for “and STAT5.”, “donor T cells” for “donor Tcells”, “μg/ml TPO,” for “μg/ml TPO”

For `CC1=NN(c2ccc(C)c(C)c2)C(=O)/C1=N\Nc1cccc(-c2cccc(C(=O)O)c2)c1O` [EP, eltrombopag, reference compound], the “response to stimulation (cell number)” value [1] was “did not respond”, the “response to stimulation (cell number)” value ([2]; 0.1 μg/ml, FIG. 3 top) was “responded” and the “relative enrichment of transgenic cells (percent transgenic cells)” value ([2]; FIG. 3 bottom) was “Relative enrichment”. The “expansion of non-activated (resting) cells” value [3] was “led to expansion; also recorded: expand selectively” and the “phosphorylation of STAT3 and STAT5” value [4] was “leads to STAT5 and STAT3 phosphorylation; also recorded: lead to the expected STAT5 and STAT3 phosphorylation”.
